{"source": "PubChem BioAssay AID504808 (Drosophila RNAi Screening Center, 2011)", "test": "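Chromatin factors that keep E2F targets switched off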 (primary screen)", "cells": "Drosophila S2 cells", "reagents": "long dsRNA against Drosophila genes", "measurement": "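Firefly luciferase driven by E2F sites, normalised to Renilla luciferase on the same minimal promoter, measured by plate reader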", "reading the numbers": "E2F firefly: higher = more E2F reporter activity; Renilla normaliser: higher = more normaliser reporter signal", "rule for the call": "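a knock-down counted as active when the firefly/Renilla E2F signal rose above 50%, a threshold chosen arbitrarily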", "note": "The screen tested about 21,000 reagents; below is an unselected part of those that have a named target and a result. Of all reagents, 18 (0.084%) were called active. 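Raw counts without plate normalisation, one of two replicates; the ratio scores behind the calls were not deposited.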 The numbers tell different reagents against one gene apart. No sequences are given here. Not stated in the record: the amount of reagent, the time to read-out."}
{"target gene": "shn", "reagent no.": 1, "E2F firefly, rep 1": 1.27e5, "Renilla normaliser, rep 1": 5120, "Outcome": "inactive"}
{"target gene": "shn", "reagent no.": 2, "E2F firefly, rep 1": 2596, "Renilla normaliser, rep 1": 202, "Outcome": "inactive"}
{"target gene": "dj-1beta", "reagent no.": 1, "E2F firefly, rep 1": 1.25e5, "Renilla normaliser, rep 1": 6439, "Outcome": "inactive"}
{"target gene": "rho-6", "reagent no.": 1, "E2F firefly, rep 1": 1.00e5, "Renilla normaliser, rep 1": 4285, "Outcome": "inactive"}
{"target gene": "CG11585", "reagent no.": 1, "E2F firefly, rep 1": 2.19e5, "Renilla normaliser, rep 1": 7240, "Outcome": "inactive"}
{"target gene": "BTBD9", "reagent no.": 1, "E2F firefly, rep 1": 56631, "Renilla normaliser, rep 1": 4158, "Outcome": "inactive"}
{"target gene": "Ugt37C2", "reagent no.": 1, "E2F firefly, rep 1": 1.01e5, "Renilla normaliser, rep 1": 4381, "Outcome": "inactive"}
{"target gene": "Rbfox1", "reagent no.": 1, "E2F firefly, rep 1": 1.22e5, "Renilla normaliser, rep 1": 5033, "Outcome": "inactive"}
{"target gene": "Rbfox1", "reagent no.": 2, "E2F firefly, rep 1": 1.18e5, "Renilla normaliser, rep 1": 5972, "Outcome": "inactive"}
{"target gene": "Rbfox1", "reagent no.": 3, "E2F firefly, rep 1": 80628, "Renilla normaliser, rep 1": 4665, "Outcome": "inactive"}
{"target gene": "Dph2", "reagent no.": 1, "E2F firefly, rep 1": 62221, "Renilla normaliser, rep 1": 3369, "Outcome": "inactive"}
{"target gene": "CG10764", "reagent no.": 1, "E2F firefly, rep 1": 78468, "Renilla normaliser, rep 1": 3578, "Outcome": "inactive"}
{"target gene": "noi", "reagent no.": 1, "E2F firefly, rep 1": 58564, "Renilla normaliser, rep 1": 3892, "Outcome": "inactive"}
{"target gene": "CG13060", "reagent no.": 1, "E2F firefly, rep 1": 1.67e5, "Renilla normaliser, rep 1": 8625, "Outcome": "inactive"}
{"target gene": "CG8736", "reagent no.": 1, "E2F firefly, rep 1": 1.63e5, "Renilla normaliser, rep 1": 5633, "Outcome": "inactive"}
{"target gene": "CheB74a", "reagent no.": 1, "E2F firefly, rep 1": 1.24e5, "Renilla normaliser, rep 1": 3632, "Outcome": "inactive"}
{"target gene": "CG17625", "reagent no.": 1, "E2F firefly, rep 1": 1.09e5, "Renilla normaliser, rep 1": 5648, "Outcome": "inactive"}
{"target gene": "CG4641 (retired record)", "reagent no.": 1, "E2F firefly, rep 1": 78221, "Renilla normaliser, rep 1": 3320, "Outcome": "inactive"}
{"target gene": "inaD", "reagent no.": 1, "E2F firefly, rep 1": 1.04e5, "Renilla normaliser, rep 1": 4429, "Outcome": "inactive"}
{"target gene": "PolE4", "reagent no.": 1, "E2F firefly, rep 1": 90410, "Renilla normaliser, rep 1": 3790, "Outcome": "inactive"}
{"target gene": "CG31807", "reagent no.": 1, "E2F firefly, rep 1": 1.32e5, "Renilla normaliser, rep 1": 5554, "Outcome": "inactive"}
{"target gene": "CG3246", "reagent no.": 1, "E2F firefly, rep 1": 1.41e5, "Renilla normaliser, rep 1": 4848, "Outcome": "inactive"}
{"target gene": "rictor", "reagent no.": 1, "E2F firefly, rep 1": 1.35e5, "Renilla normaliser, rep 1": 6713, "Outcome": "inactive"}
{"target gene": "Timp", "reagent no.": 1, "E2F firefly, rep 1": 65898, "Renilla normaliser, rep 1": 3220, "Outcome": "inactive"}
{"target gene": "CG8299", "reagent no.": 1, "E2F firefly, rep 1": 1.39e5, "Renilla normaliser, rep 1": 4709, "Outcome": "inactive"}
{"target gene": "Ehbp1", "reagent no.": 1, "E2F firefly, rep 1": 57521, "Renilla normaliser, rep 1": 2927, "Outcome": "inactive"}
{"target gene": "Mvd", "reagent no.": 1, "E2F firefly, rep 1": 8032, "Renilla normaliser, rep 1": 828, "Outcome": "inactive"}
{"target gene": "RpS30", "reagent no.": 1, "E2F firefly, rep 1": 64914, "Renilla normaliser, rep 1": 6931, "Outcome": "inactive"}

In a second layout: entries from further up
target gene,reagent no.,"E2F firefly, rep 1","Renilla normaliser, rep 1",Outcome
rho-6,1,1.00e5,4285,inactive
CG11585,1,2.19e5,7240,inactive
BTBD9,1,56631,4158,inactive
